# Measurements reported in PubChem BioAssay AID1259424 (University of Nebraska Medical Center, 2018)
# Aim: 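Rank knockdowns across the genome by resemblance to the KSR1 depletion profile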 (primary screen)
# Cells: human HCT116 colon cancer cells
# Reagents: siRNA pool against human genes, 50 nM
# Detection: 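Log2 levels of six mRNAs (branched-DNA multiplex), adjusted by two reference genes and the non-targeting median, then scored against the average KSR1 knockdown pattern as Pearson r and euclidean distance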
# Scale: mean correlation with KSR1 profile and KSR1 correlation: higher = expression change more like KSR1 knockdown; mean distance from KSR1 profile: higher = expression change less like KSR1 knockdown
# Here is a random part of about 14,000 reagents. 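Higher correlation or smaller distance means closer resemblance to KSR1 loss; control wells, including KSR1 knockdowns, recur on many plates.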 Not stated in the record: the time to read-out.
Target gene,mean correlation with KSR1 profile,mean distance from KSR1 profile,"KSR1 correlation, replicate 1","KSR1 correlation, replicate 2","KSR1 correlation, replicate 3"
RPL18 (GeneID 6141),0.274,2.67,0.145,-0.485,0.329
MPND (GeneID 84954),0.714,2.95,0.605,0.708,0.588
MTNR1B (GeneID 4544),0.417,2.26,0.545,0.489,0.348
ZBED5 (GeneID 58486),-0.0441,2.68,-0.137,-0.00782,-0.186
AP1AR (GeneID 55435),-0.37,1.58,0.0599,-0.442,-0.289
RASGRP2 (GeneID 10235),-0.127,2.17,-0.151,-0.208,-0.0887
OR2A5 (GeneID 393046),-0.538,2.68,-0.729,-0.504,-0.537
LAPTM5 (GeneID 7805),0.377,2.17,0.425,0.478,0.235
SLC66A2 (GeneID 80148),0.759,0.97,0.731,0.66,0.706
RASSF8 (GeneID 11228),-0.408,3.46,-0.35,-0.351,-0.51
PHGDH (GeneID 26227),0.25,1.09,0.316,0.0426,0.203
XPNPEP2 (GeneID 7512),0.612,3.9,0.606,0.584,0.579
CXCR1 (GeneID 3577),0.465,2.26,0.502,0.583,-0.0742
BCOR (GeneID 54880),0.363,4.08,0.433,0.269,0.153
ADAMTS10 (GeneID 81794),-0.826,2.22,-0.742,-0.912,-0.661
NUP205 (GeneID 23165),-0.702,2.99,-0.735,-0.662,-0.626
BICD1 (GeneID 636),-0.81,1.66,-0.684,-0.793,-0.51
RASAL2 (GeneID 9462),0.0659,3.11,0.255,0.0933,-0.22
PMS2P1 (GeneID 5379),0.357,2.82,0.396,0.483,0.193
RNPC3 (GeneID 55599),-0.767,2.87,-0.796,-0.739,-0.439

Quoted from above, 2 entries:
Target gene,mean correlation with KSR1 profile,mean distance from KSR1 profile,"KSR1 correlation, replicate 1","KSR1 correlation, replicate 2","KSR1 correlation, replicate 3"
RASAL2 (GeneID 9462),0.0659,3.11,0.255,0.0933,-0.22
PMS2P1 (GeneID 5379),0.357,2.82,0.396,0.483,0.193
